Reference: publication PMC6953139
These are yes or no findings as the source states them, for the method shown. Binding seen in cells or lysates may run through a third protein. Some results given as binding are weak or reduced against the parent protein; the word gives no strength. Tags and fused reporters may be left off the sequences shown.

Amino acid sequences for entries named in this document (tags omitted).
UniProt Q9UQQ2: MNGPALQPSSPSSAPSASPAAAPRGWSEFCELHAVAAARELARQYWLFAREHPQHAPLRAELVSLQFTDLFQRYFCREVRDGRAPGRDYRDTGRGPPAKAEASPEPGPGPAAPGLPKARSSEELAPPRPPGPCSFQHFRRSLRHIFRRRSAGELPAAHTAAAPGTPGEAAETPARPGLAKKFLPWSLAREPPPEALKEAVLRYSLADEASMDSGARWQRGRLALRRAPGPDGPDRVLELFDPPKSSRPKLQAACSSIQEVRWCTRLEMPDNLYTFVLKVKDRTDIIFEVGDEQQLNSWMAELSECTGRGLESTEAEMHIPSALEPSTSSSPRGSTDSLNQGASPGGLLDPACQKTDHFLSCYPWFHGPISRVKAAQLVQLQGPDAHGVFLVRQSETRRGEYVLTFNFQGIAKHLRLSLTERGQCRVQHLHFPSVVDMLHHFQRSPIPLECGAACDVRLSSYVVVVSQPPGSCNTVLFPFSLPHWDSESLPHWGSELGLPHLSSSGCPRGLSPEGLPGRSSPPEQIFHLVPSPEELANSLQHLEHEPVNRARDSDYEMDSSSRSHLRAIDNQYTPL
UniProt P62258: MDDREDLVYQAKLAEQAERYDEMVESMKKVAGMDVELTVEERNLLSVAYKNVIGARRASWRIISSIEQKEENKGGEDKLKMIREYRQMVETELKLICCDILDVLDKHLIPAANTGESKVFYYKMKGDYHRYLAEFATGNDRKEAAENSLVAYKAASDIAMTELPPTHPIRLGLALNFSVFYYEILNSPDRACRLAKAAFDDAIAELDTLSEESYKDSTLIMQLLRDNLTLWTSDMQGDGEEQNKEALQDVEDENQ

Target: FLAG-tagged LNK, stably overexpressed in ATC cell lines (UniProt Q9UQQ2)
Assay: co-IP; lysates of LNK-overexpressing ATC cell lines; antibodies against FLAG or myc overnight at 4 °C, protein A/G agarose beads, rabbit IgG as control; lysis buffer 20 mM Tris-HCl pH 7.5, 150 mM NaCl, 1% Nonidet P-40, 1% sodium deoxycholate; immunoblotting

Molecule	binding
myc-tagged 14-3-3ε (YWHAE) in ATC cells (from UniProt P62258 1-255)	binds
myc-tagged 14-3-3γ (YWHAG) in ATC cells (protein, UniProt P61981 1-247) MVDREQLVQKARLAEQAERYDDMAAAMKNVTELNEPLSNEERNLLSVAYKNVVGARRSSWRVISSIEQKTSADGNEKKIEMVRAYREKIEKELEAVCQDVLSLLDNYLIKNCSETQYESKVFYLKMKGDYYRYLAEVATGEKRATVVESSEKAYSEAHEISKEHMQPTHPIRLGLALNYSVFYYEIQNAPEQACHLAKTAFDDAIAELDTLNEDSYKDSTLIMQLLRDNLTLWTSDQQDDDGGEGNN	binds
